Values from PubChem BioAssay AID493246 (Drosophila RNAi Screening Center, 2011)

Aim: 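Identify essential fly genes by loss of cell viability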 (primary screen)
Cell system: Drosophila Kc and S2R+ cells
Reagents: long dsRNA against Drosophila genes
Measured: 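Cell number per well after knock-down, printed as raw plate values; calls were based on per-plate z-scores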
Scale: Kc cell number and S2R+ cell number: higher = more cells remaining
Active means: 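Counted as a hit if cell number falls by a z-score of at least 3 within its plate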
In all, the deposit lists about 21,000 reagents; shown is an unselected part of those with a known target gene and a result. Of all reagents, 429 (2%) were called active. 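Values are raw and not normalised between plates; calls rest on per-plate z-scores that were not deposited.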 Reagents against one gene are numbered here. Names joined by + are all predicted targets of the reagent. Not stated in the record: the amount of reagent, the time to read-out.

| Gene | reagent | Kc cell number, rep 1 | Kc cell number, rep 2 | S2R+ cell number, rep 1 | S2R+ cell number, rep 2 | Call |
| --- | --- | --- | --- | --- | --- | --- |
| Diap1 (Death-associated inhibitor of apoptosis 1) | 1 | 1.88e5 | 1.91e5 | 1.78e5 | 2.51e5 | active |
| kn (knot) | 1 | 1.38e6 | 1.45e6 | 9.85e5 | 1.14e6 | inactive |
| kn (knot) | 2 | 1.43e6 | 1.43e6 | 9.99e5 | 1.21e6 | inactive |
| kn (knot) | 3 | 1.41e6 | 1.46e6 | 9.80e5 | 1.15e6 | inactive |
| kn (knot) | 4 | 1.42e6 | 1.48e6 | 1.21e6 | 1.36e6 | inactive |
| mus201 + Chrac-14 | 1 | 1.59e6 | 1.61e6 | 1.34e6 | 1.48e6 | inactive |
| mus201 + Chrac-14 | 2 | 1.53e6 | 1.68e6 | 1.29e6 | 1.53e6 | inactive |
| Naa80 (N(alpha)-acetyltransferase 80) | 1 | 1.70e6 | 1.74e6 | 1.25e6 | 1.33e6 | inactive |
| CG6414 | 1 | 1.53e6 | 1.54e6 | 1.05e6 | 1.16e6 | inactive |
| CRAT (Carnitine O-Acetyl-Transferase) | 1 | 1.57e6 | 1.68e6 | 1.33e6 | 1.44e6 | inactive |
| CG42808 + CG42807 | 1 | 1.37e6 | 1.43e6 | 1.15e6 | 1.13e6 | inactive |
| CG42808 + CG42807 | 2 | 1.51e6 | 1.58e6 | 1.25e6 | 1.35e6 | inactive |
| Larp7 (La related protein 7) | 1 | 1.49e6 | 1.56e6 | 1.01e6 | 1.16e6 | inactive |
| dgt1 (dim gamma-tubulin 1) | 1 | 4.55e5 | – | 8.27e5 | – | inactive |
| CG17738 | 1 | 1.51e6 | 1.55e6 | 1.28e6 | 1.37e6 | inactive |
| CG34001 | 1 | 1.44e6 | 1.50e6 | 1.14e6 | 1.29e6 | inactive |
| CG34302 | 1 | 1.30e6 | 1.35e6 | 9.95e5 | 1.16e6 | inactive |
| Fmr1 (Fragile X messenger ribonucleoprotein 1) | 1 | 1.51e6 | 1.52e6 | 1.24e6 | 1.36e6 | inactive |
| Nil (Nilkantha) | 1 | 1.86e6 | 1.81e6 | 1.06e6 | 1.15e6 | inactive |
| CG7276 | 1 | 1.52e6 | 1.56e6 | 1.38e6 | 1.42e6 | inactive |
| daw (dawdle) | 1 | 1.31e6 | 1.32e6 | 9.22e5 | 1.01e6 | inactive |
| CG43693 | 1 | 1.59e6 | 1.78e6 | 1.24e6 | 1.35e6 | inactive |
| CG43693 | 2 | 1.33e6 | 1.37e6 | 1.15e6 | 1.12e6 | inactive |
| CG18810 | 1 | 1.62e6 | 1.74e6 | 1.23e6 | 2.69e5 | inactive |
| SoxN (SoxNeuro) | 1 | 1.52e6 | 1.54e6 | 1.07e6 | 1.18e6 | inactive |
| CG15140 | 1 | 1.56e6 | 1.67e6 | 1.21e6 | 1.34e6 | inactive |
| lft (lowfat) | 1 | 1.48e6 | 1.52e6 | 1.19e6 | 1.32e6 | inactive |
| CG32110 | 1 | 1.36e6 | 1.45e6 | 1.11e6 | 1.28e6 | inactive |
| CG1801 | 1 | 1.66e6 | 1.79e6 | 1.18e6 | 1.38e6 | inactive |
| CG7300 | 1 | 1.27e6 | 1.27e6 | 1.01e6 | 8.58e5 | inactive |
| CG8661 | 1 | 1.54e6 | 1.56e6 | 1.15e6 | 1.26e6 | inactive |
| ana3 (anastral spindle 3) | 1 | 1.47e6 | 1.48e6 | 1.24e6 | 1.31e6 | inactive |
| pigeon | 1 | 1.27e6 | 1.34e6 | 1.32e6 | 1.34e6 | inactive |
| CG6067 | 1 | 1.49e6 | 1.48e6 | 1.10e6 | 1.16e6 | inactive |
| CG4408 | 1 | 1.56e6 | 1.78e6 | 1.23e6 | 1.35e6 | inactive |
| PIG-F (Phosphatidylinositol glycan anchor biosynthesis class F) | 1 | 1.35e6 | 1.33e6 | 1.32e6 | 1.44e6 | inactive |
| Vml (Vitelline membrane-like) | 1 | 1.11e6 | 1.39e6 | 1.08e6 | 1.02e6 | inactive |
| Vml (Vitelline membrane-like) | 2 | 1.39e6 | 1.69e6 | 1.07e6 | 1.19e6 | inactive |
| lncRNA:CR32661 (long non-coding RNA:CR32661) | 1 | 1.56e6 | 1.54e6 | 1.10e6 | 1.20e6 | inactive |
| dpr9 (defective proboscis extension response 9) | 1 | 1.50e6 | 1.56e6 | 1.30e6 | 1.36e6 | inactive |
| dpr9 (defective proboscis extension response 9) | 2 | 1.21e6 | 1.35e6 | 1.10e6 | 1.18e6 | inactive |
| dpr9 (defective proboscis extension response 9) | 3 | 1.30e6 | 1.40e6 | 1.10e6 | 1.22e6 | inactive |
| CG13705 | 1 | 1.59e6 | 1.64e6 | 1.26e6 | 1.17e6 | inactive |

Laid out differently: entries from further up
{"Gene":"kn (knot)","reagent":3,"Kc cell number, rep 1":1.41e6,"Kc cell number, rep 2":1.46e6,"S2R+ cell number, rep 1":9.80e5,"S2R+ cell number, rep 2":1.15e6,"Call":"inactive"}
{"Gene":"kn (knot)","reagent":4,"Kc cell number, rep 1":1.42e6,"Kc cell number, rep 2":1.48e6,"S2R+ cell number, rep 1":1.21e6,"S2R+ cell number, rep 2":1.36e6,"Call":"inactive"}
{"Gene":"mus201 + Chrac-14","reagent":1,"Kc cell number, rep 1":1.59e6,"Kc cell number, rep 2":1.61e6,"S2R+ cell number, rep 1":1.34e6,"S2R+ cell number, rep 2":1.48e6,"Call":"inactive"}
{"Gene":"mus201 + Chrac-14","reagent":2,"Kc cell number, rep 1":1.53e6,"Kc cell number, rep 2":1.68e6,"S2R+ cell number, rep 1":1.29e6,"S2R+ cell number, rep 2":1.53e6,"Call":"inactive"}
{"Gene":"Naa80 (N(alpha)-acetyltransferase 80)","reagent":1,"Kc cell number, rep 1":1.70e6,"Kc cell number, rep 2":1.74e6,"S2R+ cell number, rep 1":1.25e6,"S2R+ cell number, rep 2":1.33e6,"Call":"inactive"}
{"Gene":"CG6414","reagent":1,"Kc cell number, rep 1":1.53e6,"Kc cell number, rep 2":1.54e6,"S2R+ cell number, rep 1":1.05e6,"S2R+ cell number, rep 2":1.16e6,"Call":"inactive"}
{"Gene":"CRAT (Carnitine O-Acetyl-Transferase)","reagent":1,"Kc cell number, rep 1":1.57e6,"Kc cell number, rep 2":1.68e6,"S2R+ cell number, rep 1":1.33e6,"S2R+ cell number, rep 2":1.44e6,"Call":"inactive"}
{"Gene":"CG42808 + CG42807","reagent":1,"Kc cell number, rep 1":1.37e6,"Kc cell number, rep 2":1.43e6,"S2R+ cell number, rep 1":1.15e6,"S2R+ cell number, rep 2":1.13e6,"Call":"inactive"}
{"Gene":"CG42808 + CG42807","reagent":2,"Kc cell number, rep 1":1.51e6,"Kc cell number, rep 2":1.58e6,"S2R+ cell number, rep 1":1.25e6,"S2R+ cell number, rep 2":1.35e6,"Call":"inactive"}
{"Gene":"Larp7 (La related protein 7)","reagent":1,"Kc cell number, rep 1":1.49e6,"Kc cell number, rep 2":1.56e6,"S2R+ cell number, rep 1":1.01e6,"S2R+ cell number, rep 2":1.16e6,"Call":"inactive"}
{"Gene":"dgt1 (dim gamma-tubulin 1)","reagent":1,"Kc cell number, rep 1":4.55e5,"S2R+ cell number, rep 1":8.27e5,"Call":"inactive"}
{"Gene":"CG17738","reagent":1,"Kc cell number, rep 1":1.51e6,"Kc cell number, rep 2":1.55e6,"S2R+ cell number, rep 1":1.28e6,"S2R+ cell number, rep 2":1.37e6,"Call":"inactive"}

Additional results follow.
| Gene | reagent | Kc cell number, rep 1 | Kc cell number, rep 2 | S2R+ cell number, rep 1 | S2R+ cell number, rep 2 | Call |
| --- | --- | --- | --- | --- | --- | --- |
| elm (ethanol sensitive with low memory) | 1 | 1.48e6 | 1.55e6 | 1.20e6 | 1.19e6 | inactive |
| rho-5 (rhomboid-5) | 1 | 1.55e6 | 1.64e6 | 1.30e6 | 1.41e6 | inactive |
| CG14442 | 1 | 5.13e5 | – | 7.53e5 | – | inactive |
| parvin | 1 | 1.55e6 | 1.59e6 | 1.12e6 | 1.25e6 | inactive |
| CG33500 | 1 | 1.47e6 | 1.56e6 | 7.83e5 | 1.07e6 | inactive |
| eIF4E6 (eukaryotic translation initiation factor 4E6) | 1 | 1.51e6 | 1.48e6 | 1.01e6 | 1.14e6 | inactive |
| CG4752 | 1 | 1.77e6 | 1.78e6 | 1.46e6 | 1.50e6 | inactive |
| Arf1 (ADP ribosylation factor 1) | 1 | 1.70e6 | 1.75e6 | 1.29e6 | 1.28e6 | inactive |
| CG32694 | 1 | 1.69e6 | 1.59e6 | 1.05e6 | 1.16e6 | inactive |
| CG32694 | 2 | 1.73e6 | 1.86e6 | 1.09e6 | 1.30e6 | inactive |
| hang (hangover) | 1 | 3.41e5 | – | 5.99e5 | – | inactive |
| hang (hangover) | 2 | 1.34e6 | 1.38e6 | 6.82e5 | 7.55e5 | active |
| AP-1mu (Adaptor Protein complex 1, mu subunit) | 1 | 1.55e6 | 1.58e6 | 1.40e6 | 1.42e6 | inactive |
| CG17598 | 1 | 1.53e6 | 1.60e6 | 1.10e6 | 1.22e6 | inactive |
| Br140 (Bromodomain-containing protein, 140kD) | 1 | 1.22e6 | 1.30e6 | 8.04e5 | 8.82e5 | inactive |
| Gr8a (Gustatory receptor 8a) | 1 | 1.62e6 | 1.56e6 | 9.81e5 | 1.14e6 | inactive |
| dgt2 (dim gamma-tubulin 2) | 1 | 1.66e6 | 1.72e6 | 1.24e6 | 1.42e6 | inactive |
| sl (small wing) | 1 | 5.79e5 | – | 8.37e5 | – | inactive |
| fs(1)Yb (female sterile (1) Yb) | 1 | 1.48e6 | 1.42e6 | 1.01e6 | 1.11e6 | inactive |
| CG7653 | 1 | 1.62e6 | 1.82e6 | 1.20e6 | 1.42e6 | inactive |
| Sps1 (Selenophosphate synthetase 1) | 1 | 1.37e6 | 1.39e6 | 1.18e6 | 1.21e6 | inactive |
| Klf15 (Kruppel-like factor 15) | 1 | 1.56e6 | 1.55e6 | 1.09e6 | 1.16e6 | inactive |
| CG34325 | 1 | 1.40e6 | 1.45e6 | 1.07e6 | 1.13e6 | inactive |
| CG34325 | 2 | 1.48e6 | 1.50e6 | 1.05e6 | 1.12e6 | inactive |
| wisp (wispy) | 1 | 6.63e5 | – | 7.94e5 | – | inactive |
| Nepl12 (Neprilysin-like 12) | 1 | 1.40e6 | 1.40e6 | 1.30e6 | 1.37e6 | inactive |
| CG4630 | 1 | 1.34e6 | 1.45e6 | 9.15e5 | 1.01e6 | inactive |
| CG7006 | 1 | 1.53e6 | 1.53e6 | 1.27e6 | 1.29e6 | inactive |
| Gapdh1 (Glyceraldehyde 3 phosphate dehydrogenase 1) | 1 | 1.35e6 | 1.57e6 | 1.18e6 | 1.27e6 | inactive |
| CG8813 | 1 | 1.28e6 | 1.30e6 | 8.62e5 | 8.95e5 | inactive |
| Nemp (Nuclear envelope integral membrane protein) | 1 | 1.60e6 | 1.67e6 | 9.01e5 | 1.10e6 | inactive |
| CG9147 | 1 | 1.54e6 | 1.40e6 | 1.15e6 | 1.34e6 | inactive |
